PubChem BioAssay AID1259415 (National Center for Advancing Translational Sciences (NCATS), 2018)
Several values for one entry are separate records, joined by “and”; a condition that tells them apart may be missing. Equal entries are not always repeated. Among all 410,000 compounds or so, about 18,000 (4.4%) were called active. Inconclusive results, whose numbers are uncertain, are shown with a selection of clear calls. Rule as the data show it: active = activity change below about -60%; inconclusive = no clear call, values can overlap the other calls; inactive = above about -39%.

Experiment: qHTS Assay for inhibitors of the human cytomegalovirus (HCMV)
Conditions: HFF cells, HCMV-luciferase reporter, 72 h; at 57.5 µM; hits give low values
In short: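 Compounds were evaluated in HFFs infected with an HCMV luciferase reporter virus (MOI 1 PFU/cell). Luciferase in lysates collected 72 h post infection served as the replication measure.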
% is scaled to controls: 0 for no effect and ±100 for the full control effect.

Row | Compound | activity change, negative = inhibition
1 | O=C(CN(c1ccccc1)S(=O)(=O)c1ccccc1)NCCSc1nc2ccccc2s1 | inactive: -20.5%
2 | O=c1cc(-c2ccc(C3CCCCC3)cc2)[nH][nH]1 | inactive: -35.2%
3 | Cc1nn(CC(=O)NC(C)CCc2ccccc2)c(=O)c2nn(-c3ccccc3)c(C)c12 (stereo not given) | inconclusive: -54.8%
4 | Brc1ccc2ncc3ccccc3c2c1 | inconclusive: -47.7%
5 | O=C(O)c1cc(-c2cc(C(=O)O)c3ccccc3n2)ccc1O | inactive: 0.848%
6 | CC1(C)CC(NC(=O)COc2ccc3c4c(c(=O)oc3c2)CCCC4)CC(C)(C)N1 | inactive: -28.6%
7 | O=C(CN1CCC(NC(=O)c2ccco2)CC1)Nc1ccccc1C(F)(F)F | inconclusive: -47.2%
8 | O=C(NC1CC1)C1CCN(S(=O)(=O)c2ccc(Cl)c([N+](=O)[O-])c2)CC1 | active: -103%
9 | CCOC(=O)c1cnc2c(ccc3ccccc32)c1Nc1ccc(N(C)C)cc1 | inactive: 4.27%
10 | Cc1ccc(C2=NNC(C(O)C(O)C(O)C(C)O)S2)cc1 (stereo not given) | inactive: 10.7%
11 | O=C(O)/C=C\C(=O)Nc1ccc(N2CCN(c3cccc(Cl)c3)CC2)cc1 | inconclusive: -45.1%
12 | CC(C)(C)c1ccccc1NC(=S)NCc1ccccc1 | active: -71.7%
13 | COC(=O)NNC(=O)c1ccc(C)c(Br)c1 | inconclusive: -55.7%
14 | COc1ccc(NC(=O)C2CCCN2C(=O)Nc2cccc(F)c2)cc1 (stereo not given) | inconclusive: -46.7%
15 | O=C(Nc1cccc2ccccc12)/C(=C\c1cccc([N+](=O)[O-])c1)NC(=O)c1cccs1 | inconclusive: -55.5%
16 | Cc1ccc(S(=O)(=O)N(C)c2ccc(C)c([N+](=O)[O-])c2)cc1 | inconclusive: -59.9%
17 | O=C(CSc1nc2ccccc2nc1N1CCCC1)Nc1ccc(F)cc1 | active: -65.5%
18 | COc1ccc(NC(=O)c2ccc(NC(=O)CN3CCN(c4ccccc4OC)CC3)cc2)cc1 | inconclusive: -57.1%
19 | FC(F)(F)c1cccc(N2CCN(c3ncnc4c3nc3n4CCCC3)CC2)c1 | active: -72.9%
20 | CCC(C)NC(=O)c1cc(Sc2cccc(Cl)c2)nc2ccccc12 (stereo not given) | inconclusive: -44.6%
21 | O=C(Cn1nc(C(F)(F)F)c2c1CCCC2)Nc1cccc(Cl)c1 | inconclusive: -43.7%
22 | NS(=O)(=O)c1ccc(CCNC(=O)c2nc(CS(=O)(=O)c3ccc(Cl)cc3)no2)cc1 | inconclusive: -49.4%

Single entries from the entries so far.
O=C(CSc1nc2ccccc2nc1N1CCCC1)Nc1ccc(F)cc1 – activity change, negative = inhibition: active: -65.5%
Cc1nn(CC(=O)NC(C)CCc2ccccc2)c(=O)c2nn(-c3ccccc3)c(C)c12 (stereo not given) – activity change, negative = inhibition: inconclusive: -54.8%

Further entries follow:

Row | Compound | activity change, negative = inhibition
23 | CC1=C/C(=N\NC(=O)c2cccs2)CC(C)(C)C1 | inconclusive: -59.1%
24 | Cc1ccccc1NC(=O)C(=O)NCC(c1ccc2c(c1)OCO2)N1CCN(c2ccccc2)CC1 (stereo not given) | inconclusive: -43.2%
25 | Cc1ccc(-n2cc(CNCCn3nc(C)cc3C)c(-c3ccc(F)cc3)n2)cc1 | inactive: -5.28%
26 | CCCN(C(=O)c1cc(S(=O)(=O)N2CCc3ccccc32)cn1C)c1ccc(OCC)cc1 | active: -74.7%
27 | CC(C)OC(=O)C1C2C=CC3(CN(C(C)c4ccc(Br)cc4)C(=O)C13)O2 (stereo not given) | inactive: 4.23%
28 | COCCN(C(=S)Nc1cc(C)cc(C)c1)C(C)c1cccnc1 (stereo not given) | inactive: -37.7%
29 | CC1(C)Oc2ccc3ccc(=O)oc3c2-c2cn[nH]c21 | active: -80.9%
30 | CCN(Cc1ccccc1)C(=O)c1oc2ccc(S(=O)(=O)N3CCOCC3)cc2c1C | inconclusive: 0%
31 | O=C1Nc2ccc([N+](=O)[O-])cc2OC1CCN1CCN(c2ccccc2)CC1 (stereo not given) | inconclusive: -59.9%
32 | COc1ccc(-c2c(C(=O)c3ccccc3)[nH]c(N)c2C(=O)c2ccccc2)cc1OC | active: -70.4%
33 | COc1ccc(S(=O)(=O)Oc2ccc3cccc(N)c3c2)cc1 | inconclusive: -57.8%
34 | COc1ccc(CC(N)c2csc(NC(=O)c3ccc(OC)cc3)n2)cc1 (stereo not given) | inactive: -16.4%
35 | O=C(Nc1ccccc1O)C(c1ccccc1)c1ccccc1 | inconclusive: -49.5%
36 | Cc1ccc(CNC(=O)CN2C(=O)CSc3ccc(S(=O)(=O)N4CCCCC4)cc32)cc1 | inconclusive: -50.8%
37 | O=C(CC(=O)c1ccccc1)c1ccccc1 | inactive: -33.9%
38 | COC(=O)[C@H](CC(C)C)NC(=O)N1CCC(C)CC1 | inconclusive: -58.6%
39 | CCOC(=O)C1(CC2CCCCO2)CCN(S(=O)(=O)c2cc(C)cs2)CC1 (stereo not given) | inconclusive: -52.4%
40 | O=C(O)Cc1ccc2oc(-c3cccnc3)nc2c1 | inactive: -34.3%
41 | COc1ccc(C(=O)NCC(=O)OCC(=O)N2CCC(C)CC2)cc1OC | inconclusive: -58%
42 | CCN1C(=O)C(CC(=O)Nc2ccc(F)cc2)N(Cc2cccs2)C1=S (stereo not given) | inconclusive: -58.4%
43 | COc1cccc(C(=O)Nc2ccc3nc(SCC(=O)N(C)c4ccccc4)sc3c2)c1 | inconclusive: -56.1%
44 | O=C(O)c1cccc(NC(=O)c2cn(-c3ccccc3)nc2-c2ccc([N+](=O)[O-])cc2)c1 | inactive: 5.91%

No new results follow: five of the compounds above.
Row | Compound | activity change, negative = inhibition
25 | Cc1ccc(-n2cc(CNCCn3nc(C)cc3C)c(-c3ccc(F)cc3)n2)cc1 | inactive: -5.28%
26 | CCCN(C(=O)c1cc(S(=O)(=O)N2CCc3ccccc32)cn1C)c1ccc(OCC)cc1 | active: -74.7%
27 | CC(C)OC(=O)C1C2C=CC3(CN(C(C)c4ccc(Br)cc4)C(=O)C13)O2 (stereo not given) | inactive: 4.23%
28 | COCCN(C(=S)Nc1cc(C)cc(C)c1)C(C)c1cccnc1 (stereo not given) | inactive: -37.7%
29 | CC1(C)Oc2ccc3ccc(=O)oc3c2-c2cn[nH]c21 | active: -80.9%

The list goes on.

Row | Compound | activity change, negative = inhibition
45 | Cc1ccc(-n2nc(C)c3c(C)c(CCC(=O)NC(C)c4ccccc4)c(C)nc32)cc1 (stereo not given) | inactive: 9.98% and inactive: 6.96%
46 | Cc1ccc(Cc2nc3ccccc3nc2SCC(=O)N2CCC(C)CC2)cc1 | inactive: 8.85%
47 | C/C=C(\C)C(=O)Nc1cccc(C2=NOC3(C2)C[C@H](C(N)=O)N(C(=O)CC#N)C3)c1 (stereo not given in full) | inactive: 10.1%
48 | CC(=NNC(=S)N1CCCCC1)c1ccccn1 | active: -97.9%
49 | O=C(NCc1ccco1)c1ccc(Br)c(S(=O)(=O)N2CCCCC2)c1 | inconclusive: -52.8%
50 | Cc1ccc(C2C3=C(CC(C)(C)CC3=O)N=C3c4ccccc4C(=O)C32)cc1 (stereo not given) | active: -67.9%
51 | Cc1cc(C)c2c(N)c(C(=O)N3CCc4ccccc4C3)sc2n1 | inconclusive: -58.7%
52 | CN(C(=O)Cn1nc(Cc2cccnc2)c2ccccc2c1=O)c1cccc(C(F)(F)F)c1 | inconclusive: -58%
53 | CCc1ccc(C2C(C#N)=C(N)N(N3CCOCC3)C3=C2C(=O)CC(C)(C)C3)s1 (stereo not given) | inconclusive: -50.3%
54 | O=c1c2sc3ccccc3c2n(Cc2cccc(F)c2)c(=O)n1CCc1ccccc1 | inactive: 27.5%
55 | Cc1ccc(Cl)cc1N1CCN(C(=O)C(=O)N2CCCCC2)CC1 | inconclusive: -43.4%
56 | Cc1ccc(NC(=O)CN2C(=O)COc3ccc(S(=O)(=O)N4CCCCCC4)cc32)c(C)c1 | inactive: -15.5%
57 | Cc1ccc(CNC(=O)c2ccc(N3CCCC3)c(NC(=O)Nc3ccc(C)cc3)c2)cc1 | active: -74.2%
58 | COc1ccc(CCNC(=O)c2cc3cc(F)ccc3nc2C)cc1OC | inconclusive: -40.9%
59 | CSc1ccc(CNC(=O)C(C)n2nc(C)c3c(C)n(-c4ccccc4)nc3c2=O)cc1 (stereo not given) | active: -61.8%
60 | CC(C)c1csc(CN2CCN(Cc3ccc(F)cc3)C(CCO)C2)n1 (stereo not given) | inactive: 3.9%
61 | Cc1ccc(/C=N/Nc2ccc3ccccc3n2)o1 | active: -79%
62 | COc1ccc(Br)c(C(=O)N2CCN(S(=O)(=O)/C=C/c3ccccc3)CC2)c1 | inconclusive: -40.2%
63 | CC(=O)Oc1ccc2c(C)c(CC(=O)N3CCN(C(=O)C4COc5ccccc5O4)CC3)c(=O)oc2c1C (stereo not given) | inconclusive: -57.2%
64 | Cc1noc(C)c1S(=O)(=O)N1CCCC(C(=O)NCCc2ccc(Cl)cc2)C1 (stereo not given) | inactive: 36.8%
65 | Cc1ccnc(NC(=O)Nc2ccc3c(c2)N(C)C(=O)CS3)c1 | inactive: 28.7%
66 | CCc1cccc(CC)c1NC(=O)CCCSc1nc2ccccc2s1 | inconclusive: -44.4%

Row | Compound | activity change, negative = inhibition
67 | Cc1cc(NC(=O)c2nn(C)c(C)c2Br)no1 | inconclusive: -42.3%
68 | CCOC(=O)c1noc2nc(C)n(CC(=O)Nc3cccc(OC)c3)c(=O)c12 | inactive: -16%
69 | CN(C)C(=O)c1ccc(NC(=O)c2cccc(S(=O)(=O)N3CCCc4ccccc43)c2)cc1 | inconclusive: -51.9%
70 | CCCCc1n[nH]c(=S)n1Cc1ccc(C)cc1 | inconclusive: -46.3%
71 | COc1ccc(-c2cc(C)no2)cc1S(=O)(=O)NCCCN1CCN(c2ccccc2)CC1 | inconclusive: -51.9%
72 | Cc1ccc2cc(CN(Cc3ccc4c(c3)OCO4)Cc3nnnn3Cc3ccco3)c(=O)[nH]c2c1 | inconclusive: -45.4%
73 | Cc1ccc(-c2nnc(N3CCOCC3)c3ccccc23)cc1S(=O)(=O)NCC1CCCO1 (stereo not given) | active: -94.6%
74 | O=[N+]([O-])c1nn(-c2ccccc2)n(O)c1=NC1CCN(Cc2ccccc2)CC1 | inconclusive: -42.9%
75 | Cc1cc(C)c2nc(SCC(=O)N3CC(=O)Nc4ccccc43)c(C#N)cc2c1 | active: -88.5%
76 | Cc1ccc(N(CC(=O)N2CCN(c3cc(C)ccc3C)CC2)S(=O)(=O)c2c(C)nn(C)c2C)cc1 | active: -71.7%
77 | Cc1ccc(OCCn2cnc3c2c(=O)n(C)c(=O)n3C)cc1 | active: -76.1%
78 | COc1cc(CNC(=O)c2cc(C(=O)NCc3cc(OC)cc(OC)c3)n(C)n2)cc(OC)c1 | inactive: -13.1%
79 | CSC(=S)NCc1cccnc1 | active: -81.9%
80 | CCN(CC)S(=O)(=O)c1ccc(C(=O)N(c2ccccc2)C2C=CS(=O)(=O)C2)cc1 (stereo not given) | inactive: 4.03%
81 | CCC/C=C1/CCCOC(C(=O)NCc2ccc(S(C)(=O)=O)cc2)(C(F)(F)F)C1 (stereo not given) | inactive: 15.9%
82 | Cc1ccsc1C(=O)N1CCC1(C)C(=O)NS(=O)(=O)c1ccccc1 (stereo not given) | inactive: 9.06%
83 | CCOc1ccc(NC(=O)CC2C(=O)N(CC)C(=S)N2CCNC(C)=O)cc1 (stereo not given) | inconclusive: -45.1%
84 | CCOc1ccc2c(c1)C(=NNC(=O)c1ccncc1)c1cc(OCC)ccc1-2 | active: -95.2%
85 | NC(=O)C1CCN(S(=O)(=O)c2cc3c(cc2Cl)NC(=O)CO3)CC1 | inconclusive: 0%
